# Results from PubChem BioAssay AID2685 (National Center for Advancing Translational Sciences (NCATS), 2010).
# This is one part of the list. The main result of the screen is listed elsewhere. These columns were measured beside it and carry no call. Compounds called inactive in the main read-out are mostly missing here. Words in brackets tell the shape of the fitted curve; partial curves, single points and poor fits give uncertain potencies.
# Test: qHTS Assay for Lipid Storage Modulators in Drosophila S3 Cells;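 as to cell number change: cells counted by Cell Tracker Red CMTPX staining in the red channel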
# Conditions: BODIPY lipid droplet fluorescence, 18-24 h; for cell number change: measured here: cell count max response, cells fed with added oleic acid
# How it was run: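 Laser-scanning cytometry quantifies lipid droplet accumulation (500–530 nm total intensity; droplet/cell object ratio) in oleic acid-fed (400 uM added) Drosophila S3 cells treated with a concentration series. 20 uM Triacsin C defined 100% inhibition.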
# [1] = measured here: lipid fluorescence (Fed channel) AC50, cells fed with added oleic acid
# [2] = measured here: cell number channel AC50, cells fed with added oleic acid
SMILES,cell number change [%],AC50 [1],AC50 [2]
O=C(Nc1ccc(Cl)cc1)Nc1ccccc1CC[N+](=O)[O-],19.4,,
CN(CCCC(=O)NC1CC(C)(C)NC(C)(C)C1)S(=O)(=O)c1ccc([N+](=O)[O-])cc1,-39,"0.058 µM [falling, single point]",
COCCn1c(SCC(=O)Nc2ccc(C(C)=O)cc2)nnc1-c1ccco1,7.5,,
COc1ccnc2c1c(=O)n(Cc1ccc(Cl)cc1Cl)c(=O)n2C,11,,
O=C(NCc1cccnc1)c1ccc2c(=O)n(CCCN3CCCC3=O)c(=S)[nH]c2c1,9.21,"4.61 µM [rising, full curve]",
Cc1cccc(/C=N/NC(=O)c2ccc(NC(=O)c3ccccc3Cl)cc2)n1,-9.57,,
COc1ccccc1CCNC(=O)C(C)n1nc(C)c2c(C)n(-c3ccccc3)nc2c1=O (stereo unspecified),14,,
Cc1ccc(S(=O)(=O)NCCc2nnc(SCc3cccnc3)n2C)cc1,,"14.6 µM [rising, single point]",
Cc1cc2nc3c(=O)n(Cc4ccccc4)c(=O)[nH]c3nc2cc1N,,"29.1 µM [falling, single point]",
Cc1ccc(C(=O)c2sc3nc4c(cc3c2N)CCC4)cc1,12.8,"5.8 µM [rising, partial curve]",
Cc1cccc(CNCc2ccccc2)c1,-33.3,,"29.1 µM [falling, single point]"
NNC(=O)c1sccc1OCc1ccc(Cl)cc1,46,,
Cc1ccc(/C(N)=N/OC(=O)C(C)c2ccc([N+](=O)[O-])cc2)cc1 (stereo unspecified),33.3,,"32.6 µM [rising, partial curve, poor fit]"
O=C(COC(=O)CCN1C(=O)c2ccccc2C1=O)Nc1ccc(S(=O)(=O)N2CCCC2)cc1,16.6,,
Cc1ccc(C(=O)n2c3ccccc3c3ccccc32)cc1,23,"4.11 µM [falling, partial curve]",
O=C(c1cc(-c2ccc(Cl)c(Cl)c2)on1)N1CCCCCC1,26.2,"29.1 µM [rising, single point]",
COCCNC(=O)c1ccc2snnc2c1,1.85,"0.82 µM [falling, single point]","0.291 µM [falling, partial curve, poor fit]"
Cc1ccc2nc3sc(C(=O)Nc4ccc(F)cc4)cc3cc2c1,37.1,,"29.1 µM [rising, single point]"
CC1CCC(C(=O)NC(C(=O)NCCCN2CCOCC2)C(C)C)CC1 (stereo unspecified),-36.7,"0.651 µM [falling, single point]","0.461 µM [falling, partial curve, poor fit]"
CCn1c(SCC(=O)N(C)Cc2ccc(OC)c(F)c2)nc2cc(S(N)(=O)=O)ccc21,12.9,,
Cc1ccc2cc(CN(Cc3ccco3)C(=O)c3ccco3)c3nnnn3c2c1,11.5,"32.6 µM [falling, single point]",
O=C(c1cccnc1)N1N=C(C2CC2)CC1(O)C(F)(F)F (stereo unspecified),32.9,"29.1 µM [rising, single point]","20.6 µM [rising, single point]"

# Three structures out of the list, ordered by formula weight, falling.
SMILES,cell number change [%],AC50 [1],AC50 [2]
CCn1c(SCC(=O)N(C)Cc2ccc(OC)c(F)c2)nc2cc(S(N)(=O)=O)ccc21,12.9,,
Cc1cccc(/C=N/NC(=O)c2ccc(NC(=O)c3ccccc3Cl)cc2)n1,-9.57,,
Cc1ccc(/C(N)=N/OC(=O)C(C)c2ccc([N+](=O)[O-])cc2)cc1 (stereo unspecified),33.3,,"32.6 µM [rising, partial curve, poor fit]"

# Next entries:

SMILES,cell number change [%],AC50 [1],AC50 [2]
COc1cccc(C(C(=O)NC2CCCCC2)N(C(=O)CNC(=O)c2ccco2)c2cccnc2)c1 (stereo unspecified),32.6,,
Cc1c(/C=N/NC(=O)c2ccc3c(c2)OCO3)cnn1C,157,,
Cc1ccc(NC2=NC3(CCCC3)N=C(N)N2)c(C)c1,3.77,"3.66 µM [rising, partial curve, poor fit]",
O=S(=O)(c1ccc(Br)cc1)c1cnc2ccccc2n1,-51.6,"10.3 µM [falling, partial curve]","20.6 µM [falling, partial curve, poor fit]"
C=CCn1c(SCc2ccccc2)nc(O)cc1=O,11,"1.64 µM [falling, single point]",
Clc1ccc(Oc2nc(N3CCOCC3)nc(N3CCOCC3)n2)cc1,-19.8,"0.92 µM [falling, full curve]",
CN(C)c1oc(-c2ccc(OCc3ccc(Cl)cc3)cc2)nc1C#N,7.57,"3.26 µM [rising, partial curve]",
N#Cc1c(-c2ccco2)nc(NCC2CCCO2)[nH]c1=O (stereo unspecified),-12,,
COc1ccc(CCNC(=O)CN(C)S(=O)(=O)c2ccc(OC)cc2)cc1,-6.45,,
FC(F)(F)c1ccccc1NC(=S)Nn1cnnc1,19.9,,
COc1cc(Nc2cccc[n+]2C)cc(OC)c1OC,-29.2,,"0.92 µM [falling, partial curve, poor fit]"
Cc1ccccc1Nc1nc(CSc2nnnn2-c2ccccc2)cs1,55.5,"0.517 µM [rising, full curve]","0.366 µM [rising, full curve]"
COc1cc(/C=N/O)cc(Br)c1OCc1ccc(Cl)cc1,-5.16,,"0.231 µM [falling, full curve, poor fit]"
Cc1c(-c2ccccc2)[n+](=O)c2c(n1[O-])CCCCC2,16.7,,"3.26 µM [rising, single point]"
COc1ccc(/C=C/C(=O)c2ccccn2)cc1,-2.87,"0.82 µM [falling, full curve]",
COc1ccccc1N1CCN(/N=C/c2ccc(Cl)c([N+](=O)[O-])c2)CC1,-34.5,"0.58 µM [rising, single point]","23.1 µM [falling, partial curve, poor fit]"
CCCNC(=O)c1ccccc1NC(=O)c1ccc2c(=O)n3c(nc2c1)CCC3,-7.64,"16.4 µM [falling, single point]",
O=C(Cn1nc(-c2ccc(Cl)cc2)ccc1=O)NCC1CCCO1 (stereo unspecified),38.4,,"29.1 µM [rising, partial curve, poor fit]"
COc1ccccc1N1CCN(Cc2ccco2)CC1,-18.8,,"0.13 µM [falling, full curve, poor fit]"
CCc1ccc[n+](-c2nc3ccccc3nc2C(=C=[N-])C#N)c1,,"0.651 µM [falling, single point]",
Cc1cnn(-c2nc(-c3ccccc3)cc(-c3ccccc3)n2)c1,-28.4,"1.84 µM [falling, partial curve, poor fit]",
